Source: PubChem BioAssay AID2685 (National Center for Advancing Translational Sciences (NCATS), 2010)
This is one part of the list. Shown are side measurements of this screen, not its main read-out; they come without a call. Most of these compounds were active or inconclusive in the main read-out, so they are no random draw. Words in brackets tell the shape of the fitted curve; partial curves, single points and poor fits give uncertain potencies.

Experiment: qHTS Assay for Lipid Storage Modulators in Drosophila S3 Cells;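 for cell number change: cells counted by Cell Tracker Red CMTPX staining in the red channel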
Details: BODIPY lipid droplet fluorescence, 18-24 h; for cell number change: measured here: cell count max response, cells fed with added oleic acid
How it was run: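 Laser-scanning cytometry quantifies lipid droplet accumulation (500–530 nm total intensity; droplet/cell object ratio) in oleic acid-fed (400 uM added) Drosophila S3 cells treated with a concentration series. 20 uM Triacsin C defined 100% inhibition.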

[1] = measured here: cell number channel AC50, cells fed with added oleic acid
[2] = measured here: lipid fluorescence (Fed channel) AC50, cells fed with added oleic acid

Compound: CCOC(=O)c1nnn(-c2nonc2N)c1CSc1ccccc1
- cell number change: 76.4%
- AC50 [1]: 0.731 µM [rising, full curve]
- AC50 [2]: 0.82 µM [rising, partial curve]

Compound: CCC1Oc2ccccc2N(CC(=O)NCCC2=CCCCC2)C1=O (stereo not given)
- cell number change: 13.5%
- AC50 [2]: 14.6 µM [rising, partial curve, poor fit]

Compound: Cc1ncc([N+](=O)[O-])n1CCOC(=O)Nc1ccc(Cl)c(Cl)c1
- cell number change: -25.7%
- AC50 [2]: 29.1 µM [falling, single point]

Compound: CCOC(=O)c1sc2ccc(S(=O)(=O)N3CC(C)CC(C)C3)cc2c1N (stereo not given)
- cell number change: 41.6%
- AC50 [1]: 3.66 µM [rising, full curve]
- AC50 [2]: 4.11 µM [rising, single point]

Compound: Cc1nc(SCc2ccc([N+](=O)[O-])cc2)n[nH]1
- cell number change: 16.1%

Compound: CN(C)S(=O)(=O)N1CCC(Oc2cccc(C(=O)NC3CCOC3)c2)CC1 (stereo not given)
- cell number change: 11.1%
- AC50 [2]: 29.1 µM [rising, single point]

Compound: CCOC(=O)c1sc(NC(=O)c2ccncc2)c(C#N)c1C
- cell number change: 23.4%
- AC50 [2]: 0.291 µM [rising, full curve]

Compound: Cc1c(NC(=O)CN2c3ccccc3CC2C)c(=O)n(-c2ccccc2)n1C (stereo not given)
- cell number change: -20.8%
- AC50 [2]: 1.46 µM [falling, partial curve]

Compound: O=C(COc1ccccc1)Nc1nnc(-c2ccccc2)o1
- cell number change: -30.2%
- AC50 [1]: 0.00461 µM [falling, full curve, poor fit]
- AC50 [2]: 0.164 µM [rising, full curve, poor fit]

Compound: Cc1nc2scc(C)n2c(=O)c1S(=O)(=O)NC(C)c1ccccc1 (stereo not given)
- cell number change: -0.382%
- AC50 [2]: 6.51 µM [falling, single point]

Compound: O=C(CCCc1ccccc1)NCCc1ccc(F)cc1
- cell number change: -1.59%
- AC50 [2]: 3.66 µM [falling, single point]

Compound: Cc1cccc(N2CCN(C(=O)c3cc4cc(F)ccc4[nH]3)CC2)c1C
- cell number change: 15.7%
- AC50 [2]: 6.51 µM [rising, full curve, poor fit]

Compound: NC(=O)CN1C(=O)NC(c2ccccc2)(c2ccccc2)C1=O
- AC50 [2]: 0.146 µM [falling, full curve, poor fit]

Compound: CC1O[C@@H](O[C@H](C)CC[C@@H](C)O[C@H]2OC(C)[C@@H](O)C[C@H]2O)C(O)C[C@H]1O (stereo not given in full)
- cell number change: -4.37%
- AC50 [2]: 0.00461 µM [falling, full curve, poor fit]

Compound: Cc1cc(C(=O)CSc2ncnc3ccccc23)c(C)n1C1CC1
- cell number change: -22.1%
- AC50 [2]: 1.84 µM [falling, partial curve]

Compound: CCOC(=O)Cn1c(C)nc2c(C(=O)OCC)sc(C)c2c1=O
- cell number change: -5.75%
- AC50 [2]: 0.00651 µM [rising, full curve, poor fit]

Compound: CNC(=S)NC1CC2CCCC(C1)N2Cc1ccco1 (stereo not given)
- cell number change: -97.1%
- AC50 [1]: 18.4 µM [falling, partial curve]
- AC50 [2]: 18.4 µM [falling, partial curve]

Compound: Cc1cc2oc(C(=O)Nc3ccc(S(=O)(=O)Nc4onc(C)c4C)cc3)cc(=O)c2cc1Cl
- cell number change: -13.6%
- AC50 [2]: 0.13 µM [falling, full curve]

Compound: COc1ccccc1OCCc1nnc(N)s1
- cell number change: 16%
- AC50 [2]: 0.517 µM [falling, single point]

Compound: O=C(COC(=O)c1ccc(S(=O)(=O)Nc2ccccc2)cc1)NC1CCCC1
- cell number change: -42.3%
- AC50 [1]: 11.6 µM [falling, single point]
- AC50 [2]: 29.1 µM [falling, partial curve, poor fit]

Compound: Nc1ccc(C(=O)N2CCN(S(=O)(=O)c3ccc4c(c3)OCCO4)CC2)cc1[N+](=O)[O-]
- cell number change: 28.4%
- AC50 [1]: 2.06 µM [rising, full curve, poor fit]
- AC50 [2]: 10.3 µM [rising, partial curve, poor fit]

Compound: COC(=O)CCC(=O)Nc1cccc2c(NC(=O)CCC(=O)OC)cccc12
- cell number change: -106%
- AC50 [1]: 29.1 µM [falling, single point]

Compound: O=[N+]([O-])c1cc(C(F)(F)F)ccc1N1CCN(CCO)CC1
- cell number change: -40.4%
- AC50 [1]: 0.411 µM [falling, full curve]

Compound: COc1cccc(N2CCN(C(=O)c3cc4c(s3)CCCCC4)CC2)c1
- cell number change: 20.2%
- AC50 [2]: 6.51 µM [rising, partial curve, poor fit]

Compound: CC1CCN(C(=O)c2[nH]cnc2C(=O)N[C@H](C)c2ccccc2)CC1
- cell number change: -8.41%
- AC50 [1]: 0.82 µM [falling, full curve, poor fit]
- AC50 [2]: 0.0517 µM [falling, full curve, poor fit]

Compound: O=C1c2ccccc2NC(c2ccc(Br)o2)N1O (stereo not given)
- cell number change: -13.5%
- AC50 [2]: 0.411 µM [rising, partial curve, poor fit]

Compound: CCCn1nc(NC(=O)c2ccco2)c2cc3ccccc3nc21
- cell number change: -15%
- AC50 [2]: 35.5 µM [falling, single point]

Compound: CCN(c1ccccc1)S(=O)(=O)c1ccc(C(C(=O)OC)C(=O)OC)c([N+](=O)[O-])c1
- cell number change: 15.7%

Compound: Cc1n[nH]c(=O)c2c(NC(=O)CSc3ccc(F)cc3)oc(C)c12
- cell number change: 54%
- AC50 [1]: 5.17 µM [rising, partial curve]

Compound: Cn1c(=O)c2c(ncn2CCc2ccccc2)n(C)c1=O
- cell number change: 96.8%
- AC50 [1]: 29.1 µM [rising, single point]

Compound: CCN(CC)CCCN=C1N[C@@H](c2ccccc2)C(C(=O)OC)=C(C)N1CC
- cell number change: 22.8%
- AC50 [2]: 6.51 µM [falling, partial curve, poor fit]

Compound: Cc1cc(NC(=O)COc2coc(CN3CCN(c4ccccc4)CC3)cc2=O)no1
- cell number change: 2.09%
- AC50 [2]: 2.31 µM [rising, partial curve]

Compound: C=CCOc1c(Cl)cc(C2NC(=O)NC(C)=C2C(=O)OC)cc1Cl (stereo not given)
- cell number change: 27.1%
- AC50 [2]: 18.4 µM [rising, single point]

Compound: CC(=O)c1cccc(NC(=S)NCc2ccccc2)c1
- cell number change: -13.9%
- AC50 [2]: 29.1 µM [falling, single point]

Compound: CCOC(=O)COc1cc2c3c(c(=O)oc2cc1C)CCCC3
- cell number change: 35.5%
- AC50 [1]: 23.1 µM [rising, single point]
- AC50 [2]: 25.9 µM [rising, single point]

Compound: Cc1cc(/C=N\NC(=O)c2cccs2)c(C)n1-c1ccc2ncccc2c1
- cell number change: 12.3%
- AC50 [1]: 0.00411 µM [rising, full curve, poor fit]
- AC50 [2]: 2.91 µM [rising, partial curve, poor fit]

Compound: Cc1ccc(-c2nc(CS(=O)CC(=O)NCCCN3CC(C)CC(C)C3)c(C)o2)cc1 (stereo not given)
- cell number change: 2.5%
- AC50 [2]: 0.58 µM [falling, full curve, poor fit]

Compound: Cc1ccc(NC(=S)NNC(=O)CSc2nc3ccccc3c(=O)n2-c2ccc(C)cc2)cc1
- cell number change: 2.63%
- AC50 [2]: 1.46 µM [rising, full curve]

Compound: Cn1c(-c2ccc3c(c2)OCO3)cnc1NCc1ccccc1Cl
- cell number change: -34.7%
- AC50 [1]: 4.11 µM [falling, full curve, poor fit]
- AC50 [2]: 0.146 µM [falling, partial curve, poor fit]

Compound: CC1=NN(C(=O)c2ccccc2Br)C(O)(c2ccc(Cl)cc2)C1 (stereo not given)
- cell number change: -12.1%
- AC50 [2]: 29.1 µM [falling, single point]

Compound: COc1ccc(-c2nnc(NC(=O)c3cc(C)on3)s2)cc1
- AC50 [2]: 6.51 µM [rising, single point]

Compound: CN1CCC(OC(=O)COc2ccc(C(C)(C)C)cc2)CC1
- cell number change: -26.1%
- AC50 [2]: 0.731 µM [falling, full curve]

Compound: CC(C)C1Nc2ccc(C(=O)NC3CCCCC3)cc2NC1=O (stereo not given)
- cell number change: 1.71%
- AC50 [2]: 18.4 µM [rising, single point]

Compound: O=[N+]([O-])c1cccc(/C=N/Nc2nc(C(Cl)(Cl)Cl)nc3ccccc23)c1
- cell number change: -34.4%
- AC50 [1]: 29.1 µM [falling, single point]

Compound: Cc1c(NC(=O)CN2CC(C)OC(C)C2)c(=O)n(-c2ccccc2)n1C (stereo not given)
- cell number change: -16.3%
- AC50 [1]: 2.59 µM [falling, single point]
- AC50 [2]: 3.66 µM [falling, full curve]

Compound: COc1ccc(/C=C/C(=O)C(C)(C)C)cc1OC
- cell number change: -1.85%
- AC50 [2]: 29.1 µM [falling, single point]

Compound: Cc1cccc(Oc2coc3cc(OC(=O)c4cncc(Br)c4)ccc3c2=O)c1
- cell number change: -48.4%
- AC50 [1]: 0.184 µM [falling, full curve]
- AC50 [2]: 0.164 µM [rising, full curve, poor fit]

Compound: COc1ccc(C(CC(=O)O)NS(=O)(=O)c2ccc3c(c2)N(C(C)=O)CC(C)O3)cc1 (stereo not given)
- cell number change: -9.79%
- AC50 [2]: 0.00517 µM [falling, full curve, poor fit]

Compound: CCOC(=O)c1c(NC(=O)CSc2nnc(C)s2)sc2c1CCC(CC)C2 (stereo not given)
- cell number change: -34.2%
- AC50 [1]: 20.6 µM [falling, single point]
- AC50 [2]: 20.6 µM [falling, single point]

Compound: CCc1nnc2n1N=C(c1ccc(Cl)cc1Cl)CS2
- cell number change: 16.9%

Compound: O=C(COc1ccc(S(=O)(=O)N2CCOCC2)cc1Cl)NCCN1CCOCC1
- cell number change: 11.1%
- AC50 [2]: 6.51 µM [falling, single point]

Compound: COc1ccccc1-n1cnc2cc(NCc3cccs3)ccc21
- cell number change: 22.2%
- AC50 [1]: 3.66 µM [rising, partial curve, poor fit]
- AC50 [2]: 1.46 µM [rising, full curve]

Compound: COc1ccc(NC(=O)COC(=O)c2ccc(F)cc2F)cc1
- cell number change: -49.7%
- AC50 [1]: 16.4 µM [falling, single point]

Compound: C/C(=C\C(=O)C(F)(F)F)Nc1ccc(C(F)(F)F)cc1
- cell number change: -109%
- AC50 [2]: 16.4 µM [falling, partial curve]

Compound: Cc1cc(NC(=O)c2cnn3c(C(F)(F)F)cc(-c4ccc(Br)cc4)nc23)no1
- cell number change: 45.6%
- AC50 [1]: 0.731 µM [rising, full curve, poor fit]
- AC50 [2]: 0.731 µM [rising, partial curve]
